Measurements as given in paper PMC6381112.
These are yes or no findings as the source states them, for the method shown. Binding seen in cells or lysates may run through a third protein. Here binding means that the protein was enriched with, or labelled near, the bait; the list need not be complete. No binding means not detected with the bait.

Chains of the proteins cited; added tags and fusions are not shown.
UniProt Q96AC1: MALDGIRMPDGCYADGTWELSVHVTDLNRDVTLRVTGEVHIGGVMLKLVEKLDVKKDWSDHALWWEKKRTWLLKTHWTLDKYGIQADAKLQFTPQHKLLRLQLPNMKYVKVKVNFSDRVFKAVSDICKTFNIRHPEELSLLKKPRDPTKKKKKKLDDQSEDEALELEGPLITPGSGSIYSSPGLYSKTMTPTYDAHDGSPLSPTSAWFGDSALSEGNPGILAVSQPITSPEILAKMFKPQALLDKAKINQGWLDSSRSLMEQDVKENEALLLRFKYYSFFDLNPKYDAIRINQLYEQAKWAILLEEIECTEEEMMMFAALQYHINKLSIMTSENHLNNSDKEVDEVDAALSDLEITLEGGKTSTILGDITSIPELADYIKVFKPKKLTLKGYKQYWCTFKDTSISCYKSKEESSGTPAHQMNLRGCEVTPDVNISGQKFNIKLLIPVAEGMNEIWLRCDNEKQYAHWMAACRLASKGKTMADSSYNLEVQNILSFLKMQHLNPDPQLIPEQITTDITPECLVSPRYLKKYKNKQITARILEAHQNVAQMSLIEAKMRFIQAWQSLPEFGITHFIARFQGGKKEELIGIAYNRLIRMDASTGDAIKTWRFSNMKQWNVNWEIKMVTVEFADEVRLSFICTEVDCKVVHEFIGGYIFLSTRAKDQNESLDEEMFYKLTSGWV

B1: PYCR2 (enzyme, UniProt Q96C36 1-320)
chain: MSVGFIGAGQLAYALARGFTAAGILSAHKIIASSPEMNLPTVSALRKMGVNLTRSNKETVKHSDVLFLAVKPHIIPFILDEIGADVQARHIVVSCAAGVTISSVEKKLMAFQPAPKVIRCMTNTPVVVQEGATVYATGTHALVEDGQLLEQLMSSVGFCTEVEEDLIDAVTGLSGSGPAYAFMALDALADGGVKMGLPRRLAIQLGAQALLGAAKMLLDSEQHPCQLKDNVCSPGGATIHALHFLESGGFRSLLINAVEASCIRTRELQSMADQEKISPAALKKTLLDRVKLESPTVSTLTPSSPGKLLTRSLALGGKKD
B2: PYCRL (enzyme, UniProt Q53H96 1-274)
chain: MAAAEPSPRRVGFVGAGRMAGAIAQGLIRAGKVEAQHILASAPTDRNLCHFQALGCRTTHSNQEVLQSCLLVIFATKPHVLPAVLAEVAPVVTTEHILVSVAAGVSLSTLEELLPPNTRVLRVLPNLPCVVQEGAIVMARGRHVGSSETKLLQHLLEACGRCEEVPEAYVDIHTGLSGSGVAFVCAFSEALAEGAVKMGMPSSLAHRIAAQTLLGTAKMLLHEGQHPAQLRSDVCTPGGTTIYGLHALEQGGLRAATMSAVEAATCRAKELSRK
B3: pyrroline-5-carboxylate synthase (P5CS) (enzyme, UniProt P54886 1-795)
chain: MLSQVYRCGFQPFNQHLLPWVKCTTVFRSHCIQPSVIRHVRSWSNIPFITVPLSRTHGKSFAHRSELKHAKRIVVKLGSAVVTRGDECGLALGRLASIVEQVSVLQNQGREMMLVTSGAVAFGKQRLRHEILLSQSVRQALHSGQNQLKEMAIPVLEARACAAAGQSGLMALYEAMFTQYSICAAQILVTNLDFHDEQKRRNLNGTLHELLRMNIVPIVNTNDAVVPPAEPNSDLQGVNVISVKDNDSLAARLAVEMKTDLLIVLSDVEGLFDSPPGSDDAKLIDIFYPGDQQSVTFGTKSRVGMGGMEAKVKAALWALQGGTSVVIANGTHPKVSGHVITDIVEGKKVGTFFSEVKPAGPTVEQQGEMARSGGRMLATLEPEQRAEIIHHLADLLTDQRDEILLANKKDLEEAEGRLAAPLLKRLSLSTSKLNSLAIGLRQIAASSQDSVGRVLRRTRIAKNLELEQVTVPIGVLLVIFESRPDCLPQVAALAIASGNGLLLKGGKEAAHSNRILHLLTQEALSIHGVKEAVQLVNTREEVEDLCRLDKMIDLIIPRGSSQLVRDIQKAAKGIPVMGHSEGICHMYVDSEASVDKVTRLVRDSKCEYPAACNALETLLIHRDLLRTPLFDQIIDMLRVEQVKIHAGPKFASYLTFSPSEVKSLRTEYGDLELCIEVVDNVQDAIDHIHKYGSSHTDVIVTEDENTAEFFLQHVDSACVFWNASTRFSDGYRFGLGAEVGISTSRIHARGPVGLEGLLTTKWLLRGKDHVVSDFSEHGSLKYLHENLPIPQRNTN

Biological target: kindlin-2 (human (endogenous in A549)) (UniProt Q96AC1)
Assay: affinity purification with mass spectrometry; A549 cell lysates immunoprecipitated with mouse anti-kindlin-2 antibody (clone 3A3.5) or control mouse IgG; SDS-PAGE, in-gel trypsin digestion, nano LC-MS/MS

Binder	binding
B1	binds
B2	no binding
B3	no binding
